Results as given in patent US20070196866A1, “Modulators of ion channel trpa1” (IRM LLC, priority 2004, published 2007).
At least one structure is not confirmed: it was looked up by name or label, or the drawing left a doubt. Residues, ends and D or L forms follow the SMILES beside them.

System: adult rat DRG neurons
Assay: Calcium imaging of cultured adult rat DRG neurons
Format: cell-based
Description: To further test this hypothesis, and to find out if the pungent compounds described above activate TRPA1 specifically, we performed calcium imaging of adult rat DRG neurons in response to cold, menthol, cinnamaldehyde, allyl isothiocyanate, and bradykinin. […] To a large extent, cinnamaldehyde and menthol activated mutually exclusive populations of cold-responsive neurons, as our model would predict. Allyl isothiocyanate appeared less specific as it activated 63% of the cold-responsive population (including a large overlap with menthol) and 12% of the cold-insensitive population. We have used 1.6 times the EC50 values of cinnamaldehyde and allyl isothiocyanate to enable us to directly compare DRG response profiles to these compounds. […] There were no significant differences in profiles of cinnamaldehyde and allyl isothiocyanate between cultures in the presence of 1 and 100 ng/ml of NGF.
In addition to the pungent sensory compounds, we have shown that BK can activate TRPA1.
To test if garlic extracts and allicin specifically activate TRPA1 in native neurons, we performed calcium imaging of adult rat DRG neurons. […] Addition of allicin or garlic extract to cultured rat DRG neurons activated a specific population of neurons.

With `NC(N)=NCCC[C@H](NC(=O)[C@H](Cc1ccccc1)NC(=O)[C@@H]1CCCN1C(=O)[C@H](CO)NC(=O)[C@H](Cc1ccccc1)NC(=O)CNC(=O)[C@@H]1CCCN1C(=O)[C@@H]1CCCN1C(=O)[C@@H](N)CCCN=C(N)N)C(=O)O` [BK, Bradykinin, reference compound] (H-RPPGFSPFR-OH) the “share of cinnamaldehyde-responsive neurons activated” value was 78% and the “share of total DRG neurons activated” value was 14%.
